Test results taken from article PMC4463582.
These are yes or no findings as the source states them, for the method shown. Binding seen in cells or lysates may run through a third protein. Some binding calls cover weakened binding; strength is not graded here. For some of these results: Tags and fused reporters may be left off the sequences shown.

Amino acid sequences for entries named in this document (tags omitted). Residues count along the entry.
UniProt P42261, residues 19-906: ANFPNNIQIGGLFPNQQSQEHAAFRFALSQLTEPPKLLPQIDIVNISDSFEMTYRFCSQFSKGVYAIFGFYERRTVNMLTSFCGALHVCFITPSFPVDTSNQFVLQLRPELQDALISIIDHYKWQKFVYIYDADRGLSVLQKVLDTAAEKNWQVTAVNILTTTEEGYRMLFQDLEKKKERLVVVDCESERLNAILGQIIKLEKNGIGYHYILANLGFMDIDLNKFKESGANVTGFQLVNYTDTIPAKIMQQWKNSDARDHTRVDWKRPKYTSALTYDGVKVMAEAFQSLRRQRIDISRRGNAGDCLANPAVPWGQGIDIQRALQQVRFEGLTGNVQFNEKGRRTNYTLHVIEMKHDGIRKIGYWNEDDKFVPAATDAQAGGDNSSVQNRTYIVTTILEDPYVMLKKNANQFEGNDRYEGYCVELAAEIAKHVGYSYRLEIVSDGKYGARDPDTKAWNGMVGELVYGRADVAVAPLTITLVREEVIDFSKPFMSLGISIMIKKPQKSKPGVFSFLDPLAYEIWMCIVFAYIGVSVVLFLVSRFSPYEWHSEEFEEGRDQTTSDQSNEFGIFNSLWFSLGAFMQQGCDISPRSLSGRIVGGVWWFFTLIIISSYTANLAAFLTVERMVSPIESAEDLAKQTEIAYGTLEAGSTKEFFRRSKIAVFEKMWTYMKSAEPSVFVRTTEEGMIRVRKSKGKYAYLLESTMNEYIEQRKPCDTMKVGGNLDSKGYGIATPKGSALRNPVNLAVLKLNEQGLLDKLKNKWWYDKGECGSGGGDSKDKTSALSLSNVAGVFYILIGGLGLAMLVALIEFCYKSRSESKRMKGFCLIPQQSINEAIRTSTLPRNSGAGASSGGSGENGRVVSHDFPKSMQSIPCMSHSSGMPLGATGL
UniProt P23818, residues 19-907: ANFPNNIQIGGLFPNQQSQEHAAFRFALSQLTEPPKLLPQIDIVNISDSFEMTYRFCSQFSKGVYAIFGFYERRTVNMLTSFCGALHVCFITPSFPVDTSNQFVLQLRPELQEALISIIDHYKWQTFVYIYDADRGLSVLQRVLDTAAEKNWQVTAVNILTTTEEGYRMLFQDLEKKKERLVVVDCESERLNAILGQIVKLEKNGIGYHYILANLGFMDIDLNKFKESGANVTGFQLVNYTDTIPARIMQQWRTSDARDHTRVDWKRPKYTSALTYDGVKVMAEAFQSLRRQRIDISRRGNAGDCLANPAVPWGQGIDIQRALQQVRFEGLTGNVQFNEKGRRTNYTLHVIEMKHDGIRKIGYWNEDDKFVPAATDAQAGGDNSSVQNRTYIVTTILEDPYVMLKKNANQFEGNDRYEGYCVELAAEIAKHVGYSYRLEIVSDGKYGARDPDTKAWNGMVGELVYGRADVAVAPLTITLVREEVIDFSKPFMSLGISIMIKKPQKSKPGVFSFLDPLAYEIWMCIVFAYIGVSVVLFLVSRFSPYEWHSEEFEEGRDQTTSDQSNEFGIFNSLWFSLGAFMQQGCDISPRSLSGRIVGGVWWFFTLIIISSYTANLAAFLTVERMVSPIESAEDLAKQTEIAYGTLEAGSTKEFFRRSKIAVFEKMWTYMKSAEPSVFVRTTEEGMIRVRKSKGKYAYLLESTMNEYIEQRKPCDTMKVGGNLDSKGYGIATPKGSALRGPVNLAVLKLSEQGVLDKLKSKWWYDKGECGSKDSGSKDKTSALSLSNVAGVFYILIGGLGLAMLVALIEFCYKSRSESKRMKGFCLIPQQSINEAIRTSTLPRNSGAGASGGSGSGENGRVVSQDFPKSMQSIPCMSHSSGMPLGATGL

Tests used:
[1] = molecular target: HA-tagged GRIA1, human, full-length, HA-tag inserted after the signal peptide (human) (UniProt P42261); experiment: co-IP; extracts of HEK293T cells co-transfected with HA-tagged Gria1/GRIA1 and Myc-tagged Prrt2 or Flag-tagged forms of PRRT2, lysed after 48 h; precipitated with HA antibody overnight at 4 °C, Protein A/G PLUS-Agarose 3 h; western blot
[2] = molecular target: HA-tagged Gria1, mouse, full-length, HA-tag after the C-terminal (mouse) (UniProt P23818); experiment: as above
[3] = molecular target: Gria1, endogenous in mouse brain extract (mouse (endogenous in mouse brain)) (UniProt P23818); experiment: co-IP; mouse brain extract, endogenous proteins; precipitated with anti-Gria1 antibody (normal IgG as control) overnight at 4 °C, Protein A/G PLUS-Agarose 3 h; western blot

binding [1]	Binder	also measured
binds	Flag-tagged wild type (WT) PRRT2 (proline-rich transmembrane protein 2), human, full-length (protein, UniProt Q7Z6L0 1-340) MAASSSEISEMKGVEESPKVPGEGPGHSEAETGPPQVLAGVPDQPEAPQPGPNTTAAPVDSGPKAGLAPETTETPAGASETAQATDLSLSPGGESKANCSPEDPCQETVSKPEVSKEATADQGSRLESAAPPEPAPEPAPQPDPRPDSQPTPKPALQPELPTQEDPTPEILSESVGEKQENGAVVPLQAGDGEEGPAPEPHSPPSKKSPPANGAPPRVLQQLVEEDRMRRAHSGHPGSPRGSLSRHPSSQLAGPGVEGGEGTQKPRDYIILAILSCFCPMWPVNIVAFAYAVMSRNSLQQGDVDGAQRLGRVAKLLSIVALVGGVLIIIASCVINLGVYK	–
binds	Flag-tagged PRRT2 p.A287T (c.859G>A), human, missense mutant (protein, UniProt Q7Z6L0 1-340) MAASSSEISEMKGVEESPKVPGEGPGHSEAETGPPQVLAGVPDQPEAPQPGPNTTAAPVDSGPKAGLAPETTETPAGASETAQATDLSLSPGGESKANCSPEDPCQETVSKPEVSKEATADQGSRLESAAPPEPAPEPAPQPDPRPDSQPTPKPALQPELPTQEDPTPEILSESVGEKQENGAVVPLQAGDGEEGPAPEPHSPPSKKSPPANGAPPRVLQQLVEEDRMRRAHSGHPGSPRGSLSRHPSSQLAGPGVEGGEGTQKPRDYIILAILSCFCPMWPVNIVTFAYAVMSRNSLQQGDVDGAQRLGRVAKLLSIVALVGGVLIIIASCVINLGVYK	–
–	Myc-tagged Prrt2, mouse, full-length (protein, UniProt E9PUL5 1-346) MAASSSQVSEMKGVEDSSKTQTEGPRHSEEGLGPVQVVAEIPDQPEALQPGPGITAAPVDSGPKAELAPETTETPVETPETVQATDLSLNPEEGSKASPSPSPSEARQEPASKPDVNRETAAEEGSEPQSTAPPEPTSEPAFQINTQSDPQPTSQPPPKPPLQAEPPTQEDPTTEVLTESTGEKQENGAVVPLQAGDGEEGPAPQPHSPPSTKTPPANGAPPRVLQKLVEEDRIGRAHGGHPGSPRGSLSRHPSSQLAGPGVEGGEGTQKPRDYIILAILSCFCPMWPVNIVAFAYAVMSRNSLQQGDVDGAQRLGRVAKLLSIVALVGGVLIIIASCVINLGVYK	binding [2]: binds
–	Prrt2, endogenous in mouse brain extract (protein, UniProt E9PUL5 1-346) MAASSSQVSEMKGVEDSSKTQTEGPRHSEEGLGPVQVVAEIPDQPEALQPGPGITAAPVDSGPKAELAPETTETPVETPETVQATDLSLNPEEGSKASPSPSPSEARQEPASKPDVNRETAAEEGSEPQSTAPPEPTSEPAFQINTQSDPQPTSQPPPKPPLQAEPPTQEDPTTEVLTESTGEKQENGAVVPLQAGDGEEGPAPQPHSPPSTKTPPANGAPPRVLQKLVEEDRIGRAHGGHPGSPRGSLSRHPSSQLAGPGVEGGEGTQKPRDYIILAILSCFCPMWPVNIVAFAYAVMSRNSLQQGDVDGAQRLGRVAKLLSIVALVGGVLIIIASCVINLGVYK	binding [3]: binds
